Measured values as given in US8197807B2, “Nicotinamide riboside kinase compositions and methods for using the same” (Trustees of Dartmouth College, priority 2006, dated 2012).
Some of these results come from one statement about several compounds together.

Tests used:
Yeast Nrk1 = molecular target: T1, Yeast Nrk1 (Saccharomyces cerevisiae, UniProt P53915); test: Nicotinamide riboside phosphorylation assay (specific activity, HPLC); assay type: biochemical, S. cerevisiae; details: relative to maximal specific activity of the enzyme
T1 construct: His tag (from vector pSG04) (N); made in house; host or cells: E. coli
T1 sequence (P53915 1-240): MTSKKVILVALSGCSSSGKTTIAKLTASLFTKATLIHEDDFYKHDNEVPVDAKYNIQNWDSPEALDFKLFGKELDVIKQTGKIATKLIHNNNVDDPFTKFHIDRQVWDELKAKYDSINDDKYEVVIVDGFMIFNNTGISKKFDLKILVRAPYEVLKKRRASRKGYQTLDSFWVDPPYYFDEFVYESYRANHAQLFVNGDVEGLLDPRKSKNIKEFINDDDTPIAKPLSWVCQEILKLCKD
Method: (§1) Reactions (0.2 mL) containing 100 mM NaCl, 20 mM NaHEPES pH 7.2, 5 mM β-mercaptoethanol, 1 mM ATP, 5 mM MgCl2, and 500 μM nicotinamide riboside or alternate nucleoside, were incubated at 30° C. and terminated by addition of EDTA to 20 mM and heating for 2 minutes at 100° C. Specific activity assays, containing 50 ng to 6 μg enzyme depending on the enzyme and substrate, were incubated for 30 minutes at 30° C. to maintain initial rate conditions. Reaction products were analyzed by HPLC on a strong anion exchange column with a 10 mM to 750 mM gradient of KPO4 pH 2.6.
(§2) The S. cerevisiae NRK1 gene was amplified from total yeast DNA with primers 7448 (5′-CGCTGCACATATGACTTCGAAAAAAGTGATATTAGTTGC-3′; SEQ ID NO:26) and 7449 (5′-CCGTCTCGAGCTAATCCTTACAAAGCTTTAGAATCTCTTGG-3′; SEQ ID NO:27). The amplified DNA fragment was cloned in vector pSG04 (Ghosh and Lowenstein (1997) Gene 176:249-255) for E. coli expression using restriction sites for NdeI and XhoI included in primer sequences and the resulting plasmid was designated pB446. Samples of cDNA made from human lymphocytes and spleen were used as a template for amplification of human NRK1 using primers 4754 (5′-CCGGCCCATGGCGCACCACCATCACCACCATCATATGAAAACATTTATCATTGGAATCAGTGG-3′; SEQ ID NO:28) and 4755 (5′-GCGGGGATCCTTATGCTGTCACTTGCAAACACTTTTGC-3′; SEQ ID NO:29). […]

Human Nrk1 = molecular target: T2, Human Nrk1 (Homo sapiens, UniProt Q9NWW6); test: as above; assay type: biochemical; details: relative to maximal specific activity of the enzyme
T2 construct: The human NP_060351 protein encoded at locus 9q21.31 is a polypeptide of 199 amino acids; His tag (primer 4754 encodes Met-Ala-His7 before the start Met) (N); made in house; host or cells: E. coli
T2 sequence (Q9NWW6 1-199): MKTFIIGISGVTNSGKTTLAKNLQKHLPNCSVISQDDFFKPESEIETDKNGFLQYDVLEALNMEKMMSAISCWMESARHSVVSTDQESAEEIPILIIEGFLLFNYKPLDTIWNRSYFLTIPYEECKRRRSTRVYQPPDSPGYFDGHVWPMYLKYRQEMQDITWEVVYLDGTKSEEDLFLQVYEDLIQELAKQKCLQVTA
Method: as §1, §2

SMILES	Share of maximal specific activity retained (Yeast Nrk1)	Share of maximal specific activity retained (Human Nrk1)
Nc1ccn([C@@H]2O[C@H](CO)[C@@H](O)[C@H]2O)c(=O)n1 [Cytidine, cytidine]	less than 7%	less than 7%
O=c1ccn([C@@H]2O[C@H](CO)[C@@H](O)[C@H]2O)c(=O)[nH]1 [Uridine, uridine]		less than 7%
